Test results reported in publication PMC11850942.
No constants are given. Whether binding was seen depends on the method and setting. Binding seen in cells or lysates may run through a third protein. Some results given as binding are weak or reduced against the parent protein; the word gives no strength. Each block holds one molecule with its values, some of them ahead of it.

Amino acid sequences for entries named in this document (tags omitted). Residues count along the entry.
UniProt Q04206: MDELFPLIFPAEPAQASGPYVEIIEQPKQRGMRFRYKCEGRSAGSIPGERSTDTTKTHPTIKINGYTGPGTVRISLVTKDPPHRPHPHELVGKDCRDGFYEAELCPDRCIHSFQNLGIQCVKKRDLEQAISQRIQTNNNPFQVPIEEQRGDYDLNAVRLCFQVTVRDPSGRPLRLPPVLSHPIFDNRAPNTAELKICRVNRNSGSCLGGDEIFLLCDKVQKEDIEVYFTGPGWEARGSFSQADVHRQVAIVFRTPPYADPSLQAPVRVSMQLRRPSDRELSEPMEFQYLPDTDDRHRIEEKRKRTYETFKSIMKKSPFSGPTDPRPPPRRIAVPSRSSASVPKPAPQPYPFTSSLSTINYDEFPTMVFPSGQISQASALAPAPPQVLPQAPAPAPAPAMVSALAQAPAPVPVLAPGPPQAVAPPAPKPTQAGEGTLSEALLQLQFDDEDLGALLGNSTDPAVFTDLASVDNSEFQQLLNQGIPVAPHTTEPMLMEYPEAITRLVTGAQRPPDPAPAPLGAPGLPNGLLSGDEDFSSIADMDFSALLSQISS
UniProt P19838, residues 1-433: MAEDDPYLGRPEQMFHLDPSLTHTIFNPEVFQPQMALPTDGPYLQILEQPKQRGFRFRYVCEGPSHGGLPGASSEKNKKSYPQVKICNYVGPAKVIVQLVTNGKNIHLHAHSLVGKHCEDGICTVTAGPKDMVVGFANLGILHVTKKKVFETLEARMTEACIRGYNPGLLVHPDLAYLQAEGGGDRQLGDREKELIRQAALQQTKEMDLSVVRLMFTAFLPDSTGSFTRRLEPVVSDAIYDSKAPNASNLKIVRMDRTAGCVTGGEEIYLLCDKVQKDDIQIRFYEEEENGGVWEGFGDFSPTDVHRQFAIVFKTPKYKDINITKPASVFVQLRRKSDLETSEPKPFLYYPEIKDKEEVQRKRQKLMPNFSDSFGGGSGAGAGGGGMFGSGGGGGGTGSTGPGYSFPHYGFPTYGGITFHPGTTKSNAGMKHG
UniProt P19532: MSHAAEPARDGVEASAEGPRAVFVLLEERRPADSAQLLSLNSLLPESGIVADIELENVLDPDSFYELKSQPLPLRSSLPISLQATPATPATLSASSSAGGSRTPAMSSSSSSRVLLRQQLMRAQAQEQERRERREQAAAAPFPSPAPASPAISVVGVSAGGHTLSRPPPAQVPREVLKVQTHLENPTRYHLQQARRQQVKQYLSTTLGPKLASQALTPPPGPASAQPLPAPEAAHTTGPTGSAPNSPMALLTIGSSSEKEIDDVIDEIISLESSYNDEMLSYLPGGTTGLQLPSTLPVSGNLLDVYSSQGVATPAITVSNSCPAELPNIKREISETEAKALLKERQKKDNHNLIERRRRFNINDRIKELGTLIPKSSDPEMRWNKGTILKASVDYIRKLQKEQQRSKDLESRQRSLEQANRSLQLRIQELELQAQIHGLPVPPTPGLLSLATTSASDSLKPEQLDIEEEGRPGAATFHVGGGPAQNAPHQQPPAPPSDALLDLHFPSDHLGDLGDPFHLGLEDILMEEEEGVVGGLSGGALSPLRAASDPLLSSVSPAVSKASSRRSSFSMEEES

How the values were obtained:
[1] = biological target: p65/RELA (endogenous) (human (endogenous in HeLa)) (UniProt Q04206); test: co-IP; 500 µg whole-cell extract (Triton lysis buffer), 1 µg anti-NF-κB p65 (sc-8008) or mouse IgG on TrueBlot anti-mouse Ig agarose beads, overnight at 4 °C, Western blot; endogenous proteins
[2] = biological target: p65/RELA (endogenous) (human (endogenous in HeLa)) (UniProt Q04206); test: proximity ligation; Immuno-PLA on endogenous proteins in fixed, permeabilised HeLa cells, parental against Δp65; goat anti-p65 with rabbit antibody against the partner; PLA spots per cell

binding [1]: binds
Molecule: p50 (NFKB1) (from UniProt P19838 1-433)

binding [2]: binds
binding [1]: binds
Molecule: transcription factor E3 (TFE3) (from UniProt P19532 1-575)

binding [2]: binds
B1: zinc finger and BTB domain containing 5 (ZBTB5) (protein, UniProt O15062 1-677)
chain: MDFPGHFEQIFQQLNYQRLHGQLCDCVIVVGNRHFKAHRSVLAACSTHFRALFSVAEGDQTMNMIQLDSEVVTAEAFAALIDMMYTSTLMLGESNVMDVLLAASHLHLNSVVKACKHYLTTRTLPMSPPSERVQEQSARMQRSFMLQQLGLSIVSSALNSSQNGEEQPAPMSSSMRSNLDQRTPFPMRRLHKRKQSAEERARQRLRPSIDESAISDVTPENGPSGVHSREEFFSPDSLKIVDNPKADGMTDNQEDSAIMFDQSFGTQEDAQVPSQSDNSAGNMAQLSMASRATQVETSFDQEAAPEKSSFQCENPEVGLGEKEHMRVVVKSEPLSSPEPQDEVSDVTSQAEGSESVEVEGVVVSAEKIDLSPESSDRSFSDPQSSTDRVGDIHILEVTNNLEHKSTFSISNFLNKSRGNNFTANQNNDDNIPNTTSDCRLESEAPYLLSPEAGPAGGPSSAPGSHVENPFSEPADSHFVRPMQEVMGLPCVQTSGYQGGEQFGMDFSRSGLGLHSSFSRVMIGSPRGGASNFPYYRRIAPKMPVVTSVRSSQIPENSTSSQLMMNGATSSFENGHPSQPGPPQLTRASADVLSKCKKALSEHNVLVVEGARKYACKICCKTFLTLTDCKKHIRVHTGEKPYACLKCGKRFSQSSHLYKHSKTTCLRWQSSNLPSTLL

binding [2]: binds
B2: Zinc finger protein GLI-similar 2 (GLIS2) (protein, UniProt Q9BZE0 1-524)
chain: MHSLDEPLDLKLSITKLRAAREKRERTLGVVRPRALHRELGLVDDSPTPGSPGSPPSGFLLNSKFPEKVEGRFSAAPLVDLSLSPPSGLDSPNGSSSLSPERQGNGDLPPVPSASDFQPLRYLDGVPSSFQFFLPLGSGGALHLPASSFLTPPKDKCLSPDLPLPKQLVCRWAKCNQLFELLQDLVDHVNDYHVKPEKDAGYCCHWEGCARHGRGFNARYKMLIHIRTHTNEKPHRCPTCSKSFSRLENLKIHNRSHTGEKPYVCPYEGCNKRYSNSSDRFKHTRTHYVDKPYYCKMPGCHKRYTDPSSLRKHIKAHGHFVSHEQQELLQLRPPPKPPLPAPDGGPYVSGAQIIIPNPAALFGGPGLPGLPLPLAPGPLDLSALACGNGGGSGGGGGMGPGLPGPVLPLNLAKNPLLPSPFGAGGLGLPVVSLLAGAAGGKAEGEKGRGSVPTRALGMEGHKTPLERTESSCSRPSPDGLPLLPGTVLDLSTGVNSAASSPEALAPGWVVIPPGSVLLKPAVVN
